Reference: the supplement of paper PMC8728848
Some of the results follow.

Columns and labels:
Experiment in all cases: glycan array binding signal (z-score within array); higher = stronger binding
Details in all cases: glycan notation: IUPAC condensed, linker removed
[1] = molecular target: GlcNAc(b1-2)[GlcNAc(b1-4)]Man(a1-3)[GlcNAc(b1-4)][GlcNAc(b1-2)[GlcNAc(b1-6)]Man(a1-6)]Man(b1-4)GlcNAc(b1-4)GlcNAc
Outline: (§1)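 Negative Z-scores can be read as non-binding. The Z-score is calculated within each array and then averaged across arrays of one protein sequence at different concentrations or buffers and across linkers. Arrays, 3228 in all, were curated from the Consortium for Functional Glycomics database and kept only where the protein sequence was available.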

[2] = molecular target: GlcNAc(b1-2)[GlcNAc(b1-4)]Man(a1-3)[GlcNAc(b1-4)][GlcNAc(b1-2)[GlcNAc(b1-6)]Man(a1-6)]Man(b1-4)GlcNAc(b1-4)[Fuc(a1-6)]GlcNAc
Outline: as §1

[3] = molecular target: GlcNAc(b1-2)[GlcNAc(b1-6)]Man(a1-6)[GlcNAc(b1-2)Man(a1-3)]Man(b1-4)GlcNAc(b1-4)GlcNAc
Outline: as §1

[4] = molecular target: GlcNAc(b1-2)[GlcNAc(b1-6)]Man(a1-6)[GlcNAc(b1-2)Man(a1-3)]Man(b1-4)GlcNAc(b1-4)[Fuc(a1-6)]GlcNAc
Outline: as §1

[5] = molecular target: GlcNAc(b1-2)[GlcNAc(b1-6)]Man(a1-6)[GlcNAc(b1-4)][GlcNAc(b1-2)Man(a1-3)]Man(b1-4)GlcNAc(b1-4)GlcNAc
Outline: as §1

[6] = molecular target: GlcNAc(b1-3)Fuc
Outline: as §1

[7] = molecular target: GlcNAc(b1-3)Gal
Outline: as §1

[8] = molecular target: GlcNAc(b1-3)Gal(b1-3)GalNAc
Outline: as §1

[9] = molecular target: GlcNAc(b1-3)Gal(b1-4)Glc
Outline: as §1

[10] = molecular target: GlcNAc(b1-3)Gal(b1-4)GlcNAc
Outline: as §1

[11] = molecular target: GlcNAc(b1-3)Gal(b1-4)GlcNAc(b1-2)Man(a1-3)[GlcNAc(b1-3)Gal(b1-4)GlcNAc(b1-2)Man(a1-6)]Man(b1-4)GlcNAc(b1-4)GlcNAc
Outline: as §1

[12] = molecular target: GlcNAc(b1-3)Gal(b1-4)GlcNAc(b1-2)Man(a1-3)[GlcNAc(b1-3)Gal(b1-4)GlcNAc(b1-2)Man(a1-6)]Man(b1-4)GlcNAc(b1-4)[Fuc(a1-6)]GlcNAc
Outline: as §1

[13] = molecular target: GlcNAc(b1-3)Gal(b1-4)GlcNAc(b1-2)[GlcNAc(b1-3)Gal(b1-4)GlcNAc(b1-6)]Man(a1-6)[GlcNAc(b1-3)Gal(b1-4)GlcNAc(b1-2)Man(a1-3)]Man(b1-4)GlcNAc(b1-4)GlcNAc
Outline: as §1

[14] = molecular target: GlcNAc(b1-3)Gal(b1-4)GlcNAc(b1-3)Gal(b1-4)GlcNAc
Outline: as §1

[15] = molecular target: GlcNAc(b1-3)Gal(b1-4)GlcNAc(b1-3)Gal(b1-4)GlcNAc(b1-2)Man(a1-3)[GlcNAc(b1-3)Gal(b1-4)GlcNAc(b1-3)Gal(b1-4)GlcNAc(b1-2)Man(a1-6)]Man(b1-4)GlcNAc(b1-4)GlcNAc
Outline: as §1

[16] = molecular target: GlcNAc(b1-3)Gal(b1-4)GlcNAc(b1-3)Gal(b1-4)GlcNAc(b1-2)Man(a1-3)[GlcNAc(b1-3)Gal(b1-4)GlcNAc(b1-3)Gal(b1-4)GlcNAc(b1-2)Man(a1-6)]Man(b1-4)GlcNAc(b1-4)[Fuc(a1-6)]GlcNAc
Outline: as §1

[17] = molecular target: GlcNAc(b1-3)Gal(b1-4)GlcNAc(b1-3)Gal(b1-4)GlcNAc(b1-2)[GlcNAc(b1-3)Gal(b1-4)GlcNAc(b1-3)Gal(b1-4)GlcNAc(b1-6)]Man(a1-6)[GlcNAc(b1-3)Gal(b1-4)GlcNAc(b1-3)Gal(b1-4)GlcNAc(b1-2)Man(a1-3)]Man(b1-4)GlcNAc(b1-4)[Fuc(a1-6)]GlcNAc
Outline: as §1

[18] = molecular target: GlcNAc(b1-3)Gal(b1-4)GlcNAc(b1-3)Gal(b1-4)GlcNAc(b1-3)Gal(b1-4)GlcNAc(b1-2)Man(a1-3)[GlcNAc(b1-3)Gal(b1-4)GlcNAc(b1-3)Gal(b1-4)GlcNAc(b1-3)Gal(b1-4)GlcNAc(b1-2)Man(a1-6)]Man(b1-4)GlcNAc(b1-4)GlcNAc
Outline: as §1

[19] = molecular target: GlcNAc(b1-3)Gal(b1-4)GlcNAc(b1-3)Gal(b1-4)GlcNAc(b1-3)Gal(b1-4)GlcNAc(b1-2)Man(a1-3)[GlcNAc(b1-3)Gal(b1-4)GlcNAc(b1-3)Gal(b1-4)GlcNAc(b1-3)Gal(b1-4)GlcNAc(b1-2)Man(a1-6)]Man(b1-4)GlcNAc(b1-4)[Fuc(a1-6)]GlcNAc
Outline: as §1

[20] = molecular target: GlcNAc(b1-3)Gal(b1-4)GlcNAc(b1-3)Gal(b1-4)GlcNAc(b1-3)Gal(b1-4)GlcNAc(b1-2)[GlcNAc(b1-3)Gal(b1-4)GlcNAc(b1-3)Gal(b1-4)GlcNAc(b1-3)Gal(b1-4)GlcNAc(b1-6)]Man(a1-6)[GlcNAc(b1-3)Gal(b1-4)GlcNAc(b1-3)Gal(b1-4)GlcNAc(b1-3)Gal(b1-4)GlcNAc(b1-2)Man(a1-3)]Man(b1-4)GlcNAc(b1-4)[Fuc(a1-6)]GlcNAc
Outline: as §1

[21] = molecular target: GlcNAc(b1-3)Gal(b1-4)GlcNAc(b1-3)Gal(b1-4)GlcNAc(b1-3)Gal(b1-4)GlcNAc(b1-3)Gal(b1-4)GlcNAc(b1-2)Man(a1-3)[GlcNAc(b1-3)Gal(b1-4)GlcNAc(b1-3)Gal(b1-4)GlcNAc(b1-3)Gal(b1-4)GlcNAc(b1-3)Gal(b1-4)GlcNAc(b1-2)Man(a1-6)]Man(b1-4)GlcNAc(b1-4)GlcNAc
Outline: as §1

[22] = molecular target: GlcNAc(b1-3)Gal(b1-4)GlcNAc(b1-3)Gal(b1-4)GlcNAc(b1-3)Gal(b1-4)GlcNAc(b1-3)Gal(b1-4)GlcNAc(b1-2)Man(a1-3)[GlcNAc(b1-3)Gal(b1-4)GlcNAc(b1-3)Gal(b1-4)GlcNAc(b1-3)Gal(b1-4)GlcNAc(b1-3)Gal(b1-4)GlcNAc(b1-2)Man(a1-6)]Man(b1-4)GlcNAc(b1-4)[Fuc(a1-6)]GlcNAc
Outline: as §1

[23] = molecular target: GlcNAc(b1-3)Gal(b1-4)GlcNAc(b1-3)Gal(b1-4)GlcNAc(b1-3)Gal(b1-4)GlcNAc(b1-3)Gal(b1-4)GlcNAc(b1-2)[GlcNAc(b1-3)Gal(b1-4)GlcNAc(b1-3)Gal(b1-4)GlcNAc(b1-3)Gal(b1-4)GlcNAc(b1-3)Gal(b1-4)GlcNAc(b1-6)]Man(a1-6)[GlcNAc(b1-3)Gal(b1-4)GlcNAc(b1-3)Gal(b1-4)GlcNAc(b1-3)Gal(b1-4)GlcNAc(b1-3)Gal(b1-4)GlcNAc(b1-2)Man(a1-3)]Man(b1-4)GlcNAc(b1-4)[Fuc(a1-6)]GlcNAc
Outline: as §1

[24] = molecular target: GlcNAc(b1-3)Gal(b1-4)GlcNAc(b1-3)Gal(b1-4)GlcNAc(b1-3)GalNAc
Outline: as §1

[25] = molecular target: GlcNAc(b1-3)Gal(b1-4)GlcNAc(b1-3)GalNAc
Outline: as §1

[26] = molecular target: GlcNAc(b1-3)Gal(b1-4)GlcNAc(b1-3)[GlcNAc(b1-3)Gal(b1-4)GlcNAc(b1-3)]GalNAc
Outline: as §1

[27] = molecular target: GlcNAc(b1-3)Gal(b1-4)GlcNAc(b1-6)[Gal(b1-3)]GalNAc
Outline: as §1

[28] = molecular target: GlcNAc(b1-3)Gal(b1-4)GlcNAc(b1-6)[GlcNAc(b1-3)Gal(b1-3)]GalNAc
Outline: as §1

[29] = molecular target: GlcNAc(b1-3)Gal(b1-4)GlcNAc(b1-6)[GlcNAc(b1-3)]Gal(b1-4)GlcNAc
Outline: as §1

[30] = molecular target: GlcNAc(b1-3)GalNAc
Outline: as §1

[31] = molecular target: GlcNAc(b1-3)Man
Outline: as §1

[32] = molecular target: GlcNAc(b1-3)[GlcNAc(b1-4)][GlcNAc(b1-6)]GlcNAc
Outline: as §1

[33] = molecular target: GlcNAc(b1-3)[GlcNAc(b1-6)]Gal(b1-4)GlcNAc
Outline: as §1

[34] = molecular target: GlcNAc(b1-3)[GlcNAc(b1-6)]GalNAc
Outline: as §1

[35] = molecular target: GlcNAc(b1-4)Gal(b1-4)GlcNAc
Outline: as §1

[36] = molecular target: GlcNAc(b1-4)GlcNAc
Outline: as §1

[37] = molecular target: GlcNAc(b1-4)GlcNAc(b1-4)GlcNAc
Outline: as §1

[38] = molecular target: GlcNAc(b1-4)GlcNAc(b1-4)GlcNAc(b1-4)GlcNAc(b1-4)GlcNAc
Outline: as §1

B1: OS9 (Arabidopsis thaliana) (protein)
chain: MRGSHHHHHHGMASMTGGQQMGRDLYDDDDKSRLQIFPAHLVGTFSRNNREPKYKIEFLPEDSPFHPGDNLESMVMLDKHGNRFLCYLPKEEKATSGWTSSQQNISTVMMETQQLVKLKTPDELLQPLSEKCLFRQEGWWSYEFCHQKYVRQLHVEDENKIVQEFFLGTFDPEATAAFNQTVSDASTDASQRYHSHVYTNGTTCDLTGSPREVEVRFVCAETRAMVTSITELSTCKYALTVQCPTLCKHPLFQLEKPVSHTIHCNAIPVEEDATRNKEEQAVDESPKMIADS
With B1 the “glycan array binding signal (z-score)” value [1] was 0.258, the “glycan array binding signal (z-score)” value [2] was 0.273 and the “glycan array binding signal (z-score)” value [3] was -0.361. The “glycan array binding signal (z-score)” value [4] was -0.161, the “glycan array binding signal (z-score)” value [5] was 0.226 and the “glycan array binding signal (z-score)” value [6] was -0.426. The “glycan array binding signal (z-score)” value [7] was -0.546, the “glycan array binding signal (z-score)” value [8] was 0.065 and the “glycan array binding signal (z-score)” value [9] was -0.758. For the same binder, the “glycan array binding signal (z-score)” value [10] was -0.947, the “glycan array binding signal (z-score)” value [11] was -0.442 and the “glycan array binding signal (z-score)” value [12] was 1.46. For the same binder, the “glycan array binding signal (z-score)” value [13] was 0.647, the “glycan array binding signal (z-score)” value [14] was -1.17 and the “glycan array binding signal (z-score)” value [15] was 0.616. For the same binder, the “glycan array binding signal (z-score)” value [16] was -0.144, the “glycan array binding signal (z-score)” value [17] was 0.174 and the “glycan array binding signal (z-score)” value [18] was 1.23. For the same binder, the “glycan array binding signal (z-score)” value [19] was -0.875, the “glycan array binding signal (z-score)” value [20] was 1.19 and the “glycan array binding signal (z-score)” value [21] was -0.507. For the same binder, the “glycan array binding signal (z-score)” value [22] was 0.653, the “glycan array binding signal (z-score)” value [23] was -0.274 and the “glycan array binding signal (z-score)” value [24] was -0.933. The “glycan array binding signal (z-score)” value [25] was 0.055, the “glycan array binding signal (z-score)” value [26] was -0.582 and the “glycan array binding signal (z-score)” value [27] was 0.094. For the same binder, the “glycan array binding signal (z-score)” value [28] was 1.05, the “glycan array binding signal (z-score)” value [29] was -0.589 and the “glycan array binding signal (z-score)” value [30] was 0.441. For the same binder, the “glycan array binding signal (z-score)” value [31] was 0.127, the “glycan array binding signal (z-score)” value [32] was -0.368 and the “glycan array binding signal (z-score)” value [33] was 0.204. The “glycan array binding signal (z-score)” value [34] was -0.607, the “glycan array binding signal (z-score)” value [35] was -0.506 and the “glycan array binding signal (z-score)” value [36] was 0.952. For the same binder, the “glycan array binding signal (z-score)” value [37] was -0.202 and the “glycan array binding signal (z-score)” value [38] was 0.349.
